Tests used:
[1] = tested on: Hela nucleus extract containing a mixture of HDAC isoforms; assay: HDAC enzyme inhibitory screening against Hela nucleus extract; assay type: biochemical; settings: at concentration of 1.0 µM, mean of three experiments
Experimental: The synthesised molecules were firstly screened against Hela nucleus extract containing a mixture of HDAC isoforms. […] The phenyl substitution led to decreased inhibitory activity, such as L14 and L22.
All HDAC enzymes were purchased from BPS Bioscience. In short, 60 µL of recombinant HDAC enzyme solution was mixed with various concentrations of test compound (40 µL), and then incubated at 37 °C for 30 minutes. The reaction was terminated by adding 100 µL of imaging agent containing trypsin and trichostatin A (TSA). After standing for 20 min, the fluorescence intensity was measured at the excitation and emission wavelengths of 360 and 460 nm with a microplate reader. The inhibition rate was calculated from the fluorescence intensity readings of the test wells relative to the control wells, and the IC50 curve and value were determined by GraphPad Prism 6.0 software.

K562 cells = assay: In vitro antiproliferative assay (CCK-8), K562; assay type: cell-based; settings: Homo sapiens
Experimental: (§1) Compound L20 with good performances in both enzyme and K562 cell inhibitory tests were selected for further antiproliferative assay against various cell lines. K562, U266, U937, C6, Fadu, MDA-MB-231, MDA-MB-468, A549, A2780 and HepG2 cell lines were used in the cell-based anticancer evaluation of L20.
(§2) The proliferation of cancer cells was tested by CCK-8 assay. Briefly, cells were seeded in 96-well plate with about 5 × 10^3 cells in each well. The cells were treated with tested compounds after 24 h of incubation. CCK-8 reagent ([…]) was added to each well after 72 h of incubation, and cells were incubated at 37 °C for 4 h. The light absorbance at 450 nm was measured by using an Opsys microplate reader (Dynex Technologies, Chantilly, VA, USA). Results are illustrated as percent of cell viability normalised to DMSO-treated control cells.

U266 = assay: In vitro antiproliferative assay (CCK-8), U266; assay type: cell-based; settings: Homo sapiens, U-266, CCK-8, 72 h
Experimental: as §1, §2

U937 = assay: In vitro antiproliferative assay (CCK-8), U937; assay type: cell-based; settings: Homo sapiens, U-937, CCK-8, 72 h
Experimental: as §1, §2

C6 = assay: In vitro antiproliferative assay (CCK-8), C6; assay type: cell-based; settings: Rattus norvegicus, CCK-8, 72 h
Experimental: as §1, §2

Fadu = assay: In vitro antiproliferative assay (CCK-8), Fadu; assay type: cell-based; settings: Homo sapiens, CCK-8, 72 h
Experimental: as §1, §2

A549 = assay: In vitro antiproliferative assay (CCK-8), A549; assay type: cell-based; settings: Homo sapiens, CCK-8, 72 h
Experimental: as §1, §2

A2780 = assay: In vitro antiproliferative assay (CCK-8), A2780; assay type: cell-based; settings: Homo sapiens, CCK-8, 72 h
Experimental: as §1, §2

HepG2 = assay: In vitro antiproliferative assay (CCK-8), HepG2; assay type: cell-based; settings: Homo sapiens, CCK-8, 72 h
Experimental: as §1, §2

O=C(CCCCCCC(=O)Nc1ccccc1)NO [SAHA, Vorinostat, reference compound]
HDACs percentage inhibitory rate [1]: 50.12 ± 0.74% | IC50 (K562 cells; CCK-8, 72 h): 1960 ± 70 nM | inhibition at 1 µM (K562 cells; at concentration of 1.0 µM, mean of three experiments, read-out: K562 percentage inhibitory rate): 52.2 ± 0.74% | IC50 (U266): 190 ± 10 nM | IC50 (U937): 1210 ± 80 nM | IC50 (C6): 3220 ± 130 nM | IC50 (Fadu): 4120 ± 220 nM | IC50 (A549): 4220 ± 190 nM | IC50 (A2780): 2540 ± 130 nM | IC50 (HepG2): 3970 ± 210 nM
